Experimental data published in PMC8117511.
Results are given in words; binding and its absence hold for the method and conditions named. For some assays here: In cells and extracts the contact can be indirect. Some results given as binding are weak or reduced against the parent protein; the word gives no strength.

Sequences of proteins named here, by UniProt entry; tags and fusion partners are left off.
UniProt Q04206: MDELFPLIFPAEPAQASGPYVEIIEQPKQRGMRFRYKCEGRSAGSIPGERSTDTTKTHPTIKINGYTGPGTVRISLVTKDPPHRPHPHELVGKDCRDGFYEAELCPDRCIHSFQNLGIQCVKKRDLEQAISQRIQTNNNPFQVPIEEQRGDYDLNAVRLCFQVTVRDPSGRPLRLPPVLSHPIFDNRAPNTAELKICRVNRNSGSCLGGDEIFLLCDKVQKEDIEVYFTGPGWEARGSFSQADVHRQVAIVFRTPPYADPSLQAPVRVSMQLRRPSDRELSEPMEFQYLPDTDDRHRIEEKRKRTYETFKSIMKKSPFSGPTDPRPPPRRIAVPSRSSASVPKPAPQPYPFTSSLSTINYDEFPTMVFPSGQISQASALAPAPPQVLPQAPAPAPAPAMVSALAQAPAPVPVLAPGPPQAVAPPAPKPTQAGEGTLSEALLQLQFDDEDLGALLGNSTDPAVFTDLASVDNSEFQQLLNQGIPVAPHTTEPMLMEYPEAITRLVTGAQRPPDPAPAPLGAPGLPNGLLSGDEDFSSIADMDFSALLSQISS
UniProt O95863: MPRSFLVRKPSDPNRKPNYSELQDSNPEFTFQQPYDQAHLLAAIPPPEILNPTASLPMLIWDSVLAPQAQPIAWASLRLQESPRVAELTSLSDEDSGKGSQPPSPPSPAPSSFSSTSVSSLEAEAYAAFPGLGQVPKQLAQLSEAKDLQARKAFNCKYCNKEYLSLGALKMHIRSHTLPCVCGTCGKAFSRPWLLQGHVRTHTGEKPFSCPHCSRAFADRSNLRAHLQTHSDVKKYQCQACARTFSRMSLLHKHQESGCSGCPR

Experiments:
[1] = biological target: P65, a NF-κB subunit (human (endogenous in human cell lines RKO, DLD1)) (UniProt Q04206); experiment: co-IP; whole cell extracts in IP lysis buffer with PMSF; Protein G magnetic beads with anti-P65 or anti-Snail antibody, overnight at 4°C; washed with PBS + 0.1% Tween 20; western blotting; cells treated with or without LPS
[2] = biological target: P65, a NF-κB subunit (human (endogenous in human cell lines RKO, DLD1)) (UniProt Q04206); experiment: ChIP-reChIP; Re-ChIP-IT kit; first ChIP with P65 antibody, second ChIP with Snail antibody; HK3 promoter chromatin detected by semi-quantitative PCR; cells treated with or without LPS

Substance: Snail (from UniProt O95863 1-264)
- binding [1]: binds
- binding [2]: binds
